Measurements taken from paper PMC7070731, “Cytotoxic Activity of Organotin(IV) Derivatives with Triazolopyrimidine Containing Exocyclic Oxygen Atoms” (Molecules, 2020).

Key:
[1] = system: intestinal normal-like differentiated Caco-2 cells; experiment: MTT viability assay, normal-like differentiated Caco-2 cells; format: cell-based, human; settings: for Selectivity index towards the tumor cells (SI): summary statement over both normal cell types versus HCT-116; for SI (selectivity index): LC50 of normal differentiated Caco2 cells divided by IC50 of HCT-116 tumor cells
Experimental: (§1) HTC116 (human colorectal carcinoma), HepG2 (human hepatocellular carcinoma), MCF-7 (human breast cancer), 16-HBE (human bronchial epithelium) and Caco-2 (human colorectal carcinoma) cell lines were purchased from American Type Culture Collection, Rockville, MD, USA. All cell lines were grown in RPMI medium supplemented with L-glutamine (2 mM), 10% fetal bovine serum (FBS), penicillin (100 U/mL), streptomycin (100 µg/mL) and gentamicin (5 μg/mL). Cells were maintained in log phase by seeding twice a week at a density of 3 × 10^8 cells/L in humidified 5% CO2 atmosphere, at 37 °C. In all experiments, after plating, cells were allowed to adhere overnight and then treated with the compounds or vehicle alone (control cells), whereas Caco-2 cells were treated 15 days after confluence, at which time the cells are differentiated in normal intestinal-like cells. No differences were found between cells treated with DMSO 0.1% and untreated cells in terms of cell number and viability.
(§2) Cytotoxic activity of the organotin compounds against human tumor cell lines (HCT-116, HepG2 and MCF-7) and human normal cells (16-HBE and intestinal-like differentiated Caco2 cells) was determined using the MTT colorimetric assay based on the reduction of 3-(4,5-dimethyl-2-thiazolyl)bromide-2,5-diphenyl-2H-tetrazolium (MTT) to purple formazan using mitochondrial dehydrogenases of living cells, as reported. This method is commonly used to illustrate inhibition of cellular proliferation. […] Cisplatin was used for comparison. Briefly, all cell lines were seeded at 1.0 × 10^4 cells/well in 96-well plates containing 200 μL RPMI. When appropriated, cells were washed with fresh medium and incubated with the compounds in RPMI. After incubation, cells were washed, and 50 μL FBS-free medium containing 5 mg/mL MTT was added. The medium was discarded after a 2 h incubation at 37 °C by centrifugation, and formazan blue formed in the cells was dissolved in DMSO. The absorbance, measured at 570 nm in a microplate reader (Bio-RAD, Hercules, CA, USA) of MTT formazan of control cells was taken as 100% of viability. The growth inhibition activity of compounds was estimated by comparison with the not-treated control. The values for the inhibitory concentration for 50% of the tested compounds (IC50) were calculated using a sigmoidal model using GraphPad Prism 5.02 from GraphPad Software (San Diego, CA, USA). Each experiment was repeated three times in triplicate to obtain the mean values.
Formazan of control cells was taken as 100% viability and the 50% lethal concentrations of the synthesized complexes (LC50) were determined by plotting the graph of cell viability versus the concentrations. The selectivity index (SI) values were calculated for each compound by dividing the LC50 of normal differentiated Caco2 or 16-HBE cells by the IC50 of HCT-116 tumor cells. Each experiment was repeated three times in triplicate.

[2] = system: human bronchial epithelial cells (16-HBE); experiment: MTT viability assay, 16-HBE cells; format: cell-based; settings: LC50 of 16-HBE cells divided by IC50 of HCT-116 tumor cells
Experimental: as §1, §2
Formazan of control cells was taken as 100% viability and the 50% lethal concentrations of the synthesized complexes (LC50) were determined by plotting the graph of cell viability versus the concentrations. […]

Compound: CCC[CH2][Sn]([CH2]CCC)([CH2]CCC)[O]c1ccn2ncnc2n1 [Compound 2, n-Bu3Sn(5tpO)]
- Selectivity index towards the tumor cells (SI) [1]: > 90
- SI (selectivity index) [2]: 240

Compound: CCC[CH2][Sn]([CH2]CCC)([CH2]CCC)[O]c1cc(C)nc2ncnn12 [Compound 4, n-Bu3Sn(mtpO)]
- Selectivity index towards the tumor cells (SI) [1]: > 90
- SI (selectivity index) [2]: 323

Compound: Ph3Sn(HtpO2) [Compound 6]
- SI (selectivity index) [1]: >1000
- Selectivity index towards the tumor cells (SI) [1]: > 90
- SI (selectivity index) [2]: >1000

Compound: n-Bu3Sn(HtpO2) [Compound 5]
- SI (selectivity index) [1]: 116
- Selectivity index towards the tumor cells (SI) [1]: > 90
- SI (selectivity index) [2]: 217
